Consider one compound from the supplement of paper PMC6411743.

Common to all, as to experiment: NP40-soluble protein abundance relative to vehicle (solubility fold change) (ratio); higher = more soluble protein in presence of ATP
One experiment concerns the target T1, ACAP2 (UniProt Q15057).
T1 sequence (whole entry): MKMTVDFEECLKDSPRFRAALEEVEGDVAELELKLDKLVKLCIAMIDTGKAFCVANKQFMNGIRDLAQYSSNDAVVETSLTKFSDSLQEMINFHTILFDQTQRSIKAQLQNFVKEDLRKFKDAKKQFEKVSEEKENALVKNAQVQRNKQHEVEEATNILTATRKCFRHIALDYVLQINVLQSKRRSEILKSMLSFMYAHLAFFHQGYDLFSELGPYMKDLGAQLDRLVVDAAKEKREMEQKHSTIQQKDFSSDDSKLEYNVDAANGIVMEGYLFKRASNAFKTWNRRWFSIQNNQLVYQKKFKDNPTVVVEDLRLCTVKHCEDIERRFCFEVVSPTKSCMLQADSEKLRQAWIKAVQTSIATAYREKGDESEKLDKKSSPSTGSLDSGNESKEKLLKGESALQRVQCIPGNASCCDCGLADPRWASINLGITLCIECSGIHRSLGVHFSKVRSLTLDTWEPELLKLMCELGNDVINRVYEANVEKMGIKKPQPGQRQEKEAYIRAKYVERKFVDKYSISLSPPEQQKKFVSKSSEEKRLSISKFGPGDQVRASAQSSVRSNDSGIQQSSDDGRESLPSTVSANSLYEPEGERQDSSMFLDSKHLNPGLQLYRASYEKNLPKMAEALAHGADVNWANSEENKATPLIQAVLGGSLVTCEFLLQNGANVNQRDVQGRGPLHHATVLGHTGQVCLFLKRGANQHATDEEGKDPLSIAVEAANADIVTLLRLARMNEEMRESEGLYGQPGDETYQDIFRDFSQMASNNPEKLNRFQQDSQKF
In short, it runs like this: (§1)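 Data come from three independent experiments in which Dounce-homogenised Jurkat crude lysate was treated at eight concentrations from 0.1 to 10 mM. Treatment ran 10 min at room temperature and then 3 min at 37 °C, after which 0.8% NP40 and benzonase were added for 60 min at 4 °C before ultracentrifugation. The supernatant underwent TMT labelling and LC-MS/MS, and vsn-normalised intensities were expressed as fold change against the detergent-processed vehicle in each replicate.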

Another experiment concerns the target T2, CWF19L2 (UniProt Q2TBE0).
T2 sequence (whole entry): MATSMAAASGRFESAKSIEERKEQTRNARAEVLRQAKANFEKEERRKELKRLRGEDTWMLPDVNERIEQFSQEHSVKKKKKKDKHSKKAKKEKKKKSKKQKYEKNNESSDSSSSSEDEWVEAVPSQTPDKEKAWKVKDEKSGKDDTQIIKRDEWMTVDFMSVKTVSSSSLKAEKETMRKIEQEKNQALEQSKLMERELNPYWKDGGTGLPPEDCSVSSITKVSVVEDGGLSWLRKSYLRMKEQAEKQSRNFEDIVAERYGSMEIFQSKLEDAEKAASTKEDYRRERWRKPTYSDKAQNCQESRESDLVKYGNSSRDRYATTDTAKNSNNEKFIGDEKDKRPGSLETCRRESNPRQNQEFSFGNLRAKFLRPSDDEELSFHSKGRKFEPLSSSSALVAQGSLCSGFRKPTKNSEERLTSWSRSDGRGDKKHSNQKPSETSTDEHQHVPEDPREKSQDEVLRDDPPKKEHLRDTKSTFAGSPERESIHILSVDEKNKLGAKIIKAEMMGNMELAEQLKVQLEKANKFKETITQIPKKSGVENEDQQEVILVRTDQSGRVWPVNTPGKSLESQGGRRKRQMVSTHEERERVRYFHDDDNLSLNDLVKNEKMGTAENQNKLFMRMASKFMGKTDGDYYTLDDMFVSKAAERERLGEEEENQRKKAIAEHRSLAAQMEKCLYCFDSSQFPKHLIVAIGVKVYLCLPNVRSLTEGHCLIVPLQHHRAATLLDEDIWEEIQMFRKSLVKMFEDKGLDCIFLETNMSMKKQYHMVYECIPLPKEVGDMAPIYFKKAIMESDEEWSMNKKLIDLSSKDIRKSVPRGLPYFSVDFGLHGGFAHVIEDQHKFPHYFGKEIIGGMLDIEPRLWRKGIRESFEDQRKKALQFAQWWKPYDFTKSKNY
The method, boiled down: as §1

Another experiment has as its target T3, FAM53B (UniProt Q14153).
T3 sequence (whole entry): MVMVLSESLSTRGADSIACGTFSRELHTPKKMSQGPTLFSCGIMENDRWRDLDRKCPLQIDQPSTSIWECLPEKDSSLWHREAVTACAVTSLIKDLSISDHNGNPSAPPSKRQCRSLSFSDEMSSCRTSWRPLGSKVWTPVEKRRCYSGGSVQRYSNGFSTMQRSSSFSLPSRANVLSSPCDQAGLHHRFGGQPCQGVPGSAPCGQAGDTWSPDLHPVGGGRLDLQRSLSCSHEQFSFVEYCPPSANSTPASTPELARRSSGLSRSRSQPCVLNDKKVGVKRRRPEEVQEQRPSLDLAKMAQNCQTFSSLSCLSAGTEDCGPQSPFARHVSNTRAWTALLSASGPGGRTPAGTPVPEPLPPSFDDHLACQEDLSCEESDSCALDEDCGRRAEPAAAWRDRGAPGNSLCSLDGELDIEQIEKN
The method, boiled down: as §1

For the next experiment, the target named is T4, GALE (UniProt Q14376).
T4 sequence (whole entry): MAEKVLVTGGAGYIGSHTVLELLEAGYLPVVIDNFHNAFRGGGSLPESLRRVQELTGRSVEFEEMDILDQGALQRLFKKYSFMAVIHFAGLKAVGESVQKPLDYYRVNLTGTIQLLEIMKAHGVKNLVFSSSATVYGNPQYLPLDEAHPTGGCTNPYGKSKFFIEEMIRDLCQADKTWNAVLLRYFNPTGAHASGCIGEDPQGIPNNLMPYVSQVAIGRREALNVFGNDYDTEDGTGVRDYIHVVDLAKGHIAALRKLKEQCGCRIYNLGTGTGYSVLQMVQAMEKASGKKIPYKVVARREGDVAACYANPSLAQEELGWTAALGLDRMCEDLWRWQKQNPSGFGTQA
The method, boiled down:
as §1

± gives the standard deviation of the averaged measurements. This is a selection; strong and weak results do not stand in their true shares.

In the case of `Nc1ncnc2c1ncn2[C@@H]1O[C@H](COP(=O)(O)OP(=O)(O)OP(=O)(O)O)[C@@H](O)[C@H]1O` [adenosine triphosphate], the NP40-soluble protein abundance with ACAP2 (concentration: 1mM) was determined as 0.959 ± 0.037; with ACAP2 (concentration: 2mM) it was 0.957 ± 0.038; with ACAP2 (concentration: 4mM), 0.953 ± 0.025; with ACAP2 (concentration: 6mM), 0.947 ± 0.03; in the experiment with ACAP2 (concentration: 8mM), 0.949 ± 0.026; with ACAP2 (concentration: 10mM), 0.949 ± 0.024. In addition, the NP40-soluble protein abundance in the experiment with CWF19L2 (concentration: 1mM) amounted to 1.03 ± 0.051; in the experiment with CWF19L2 (concentration: 2mM), 1.03 ± 0.036; in the experiment with CWF19L2 (concentration: 4mM) it was 1.07 ± 0.062; with CWF19L2 (concentration: 6mM), 1.11 ± 0.079; with CWF19L2 (concentration: 8mM), 1.09 ± 0.032; with CWF19L2 (concentration: 10mM), 1.15 ± 0.019. Moreover, the NP40-soluble protein abundance in the experiment with FAM53B (concentration: 1mM) was determined as 1 ± 0.17; with FAM53B (concentration: 2mM), 1.07 ± 0.24; in the experiment with FAM53B (concentration: 4mM) it was 1.06 ± 0.15; with FAM53B (concentration: 6mM), 1.01 ± 0.23; in the experiment with FAM53B (concentration: 8mM), 0.984 ± 0.15; with FAM53B (concentration: 10mM), 0.992 ± 0.16. In addition, the NP40-soluble protein abundance with GALE (concentration: 1mM) came to 0.973 ± 0.056; with GALE (concentration: 2mM) it was 0.984 ± 0.06; in the experiment with GALE (concentration: 4mM), 0.979 ± 0.034; with GALE (concentration: 6mM), 0.927 ± 0.081; in the experiment with GALE (concentration: 8mM) it was 0.971 ± 0.044; with GALE (concentration: 10mM), 0.966 ± 0.043.
